# PubChem BioAssay AID540276 (National Center for Advancing Translational Sciences (NCATS), 2011)
# “And” between values parts separate entries of the source, which are not always exact repeats. Equal entries are not always repeated. The whole screen tested about 300,000 compounds, of which about 5,400 (1.8%) were called active. The inconclusive results got no clear call from the source; some entries with a clear call stand among them for comparison. Calls come from the whole dose curve; tested in HEK293 cells. Potencies beside an inconclusive call are fits to weak or partial responses and may not hold up.
# Experiment: qHTS for inhibitors of binding or entry into cells for Marburg Virus
# Details: Marburg virus pseudotyped entry inhibition, cell reporter; series mostly up to 37.8 µM
# Potency is the fitted concentration of half-maximal effect.
row,Structure (SMILES),Potency
1,O=C(NCc1ccc(Cl)cc1)c1cc(-c2cccs2)on1,inactive
2,O=C(c1cc2nc(-c3cccs3)cc(C(F)(F)Cl)n2n1)N1CCCc2ccccc21,"inconclusive: 29.1 µM [inhibitor, single point]"
3,CC(C)NS(=O)(=O)c1ccc(OCC(=O)Nc2ccc(F)cc2F)cc1,inactive
4,COc1ccc(C2C3=C(CC(C)(C)CC3=O)Nc3cc4c(cc32)OCO4)cc1 (stereo unspecified),"inconclusive: 1.26 µM [activator, single point]"
5,Cc1ccc(-n2nc(C(=O)Nc3cccc(C#N)c3)c3c4ccccc4n(C)c3c2=O)cc1,inactive
6,COC(=O)N[C@H](C(C(=O)OC)=C(C)NCc1ccccc1)c1cccc(C)c1,"inconclusive: 0.211 µM [activator, partial curve, poor fit]"
7,Cc1[nH]n(C(N)=S)c(=O)c1N=Nc1cc(-c2ccc(Br)cc2)[nH]n1,"inconclusive: 3.16 µM [activator, single point]"
8,CCCn1c2c(c(O)c(C(=O)NCCCN(CC)CC)c1=O)CCCC2,active: 10 µM
9,C/C(=N/NC(=O)CNC(=O)c1cccs1)c1ccc(Cl)cc1,inactive
10,CCc1c(C(=O)N/N=C/c2ccc(OCc3ccc(F)cc3)c(OC)c2)nnn1-c1nonc1N,"inconclusive: 3.16 µM [inhibitor, partial curve, poor fit]"
11,N#CC(C(=O)c1ccco1)c1ccccn1 (stereo unspecified),"inconclusive: 23.1 µM [activator, single point]"
12,COC(=O)c1ccc(NC(=O)C2CC(=O)N(c3cc(C)ccc3C)C2)cc1 (stereo unspecified),"inconclusive: 1.12 µM [inhibitor, partial curve, poor fit]"
13,COc1ccc(/C=N/n2c(-c3cc(C)[nH]n3)n[nH]c2=S)cc1,inactive
14,COc1ccc(CCN2CC(O)=C(c3nc4ccccc4c(=O)[nH]3)C2=N)cc1OC,inactive
15,COc1cccc(/C=N/N=C(\N)c2nonc2N)c1O,"inconclusive: 10 µM [inhibitor, partial curve]"
16,Cc1ccc(-c2c[n+](CC(=O)OCc3ccccc3)c3n2CCC3)cc1,"inconclusive: 7.08 µM [activator, full curve]"
17,CC1CCC(NC(=S)NCCN(C)C)CC1 (stereo unspecified),"inconclusive: 3.55 µM [inhibitor, single point]"
18,CN(C(=O)c1ccc2c(c1)N(Cc1ccccc1F)C(=O)c1ccccc1S2(=O)=O)C1CCCCC1,"inconclusive: 25.1 µM [inhibitor, single point]"
19,Cn1/c(=N\NC(=O)C2CCCCC2)sc2ccccc21,"inconclusive: 8.91 µM [activator, partial curve, poor fit]"
20,COc1ccc(CCN(C)C(=O)CCc2nnc(-c3ccccc3)o2)cc1OC,"inconclusive: 7.08 µM [activator, full curve, poor fit]"
21,COc1ccc2c(c1)CCC/C2=N\NC(=O)c1ccoc1C,"inconclusive: 2.91 µM [activator, partial curve]"
22,CCOc1ccc2nc(NC(=O)COC)sc2c1,"inconclusive: 31.6 µM [inhibitor, single point]"

# Sorted by SMILES length (smallest number first): some entries from above
row,Structure (SMILES),Potency
21,COc1ccc2c(c1)CCC/C2=N\NC(=O)c1ccoc1C,"inconclusive: 2.91 µM [activator, partial curve]"
9,C/C(=N/NC(=O)CNC(=O)c1cccs1)c1ccc(Cl)cc1,inactive
7,Cc1[nH]n(C(N)=S)c(=O)c1N=Nc1cc(-c2ccc(Br)cc2)[nH]n1,"inconclusive: 3.16 µM [activator, single point]"

# Next part

row,Structure (SMILES),Potency
1,O=C(Cc1ccccc1)c1ccc(N2CCOCC2)cc1,"inconclusive: 7.08 µM [activator, full curve, poor fit]"
2,Fc1ccc(OCc2nc(-c3cccs3)no2)cc1,"inconclusive: 3.16 µM [activator, single point]"
3,COc1cc(/C=C/C(=O)OCC(=O)c2c(N)n(C)c(=O)n(C)c2=O)ccc1OCC#N,active: 6.31 µM
4,N#CCCN(CCC#N)C(=O)COc1ccc(Cl)cc1Cl,"inconclusive: 25.9 µM [activator, single point]"
5,O=C(O)C1C2C=CC(C2)C1C(=O)NCCc1ccccc1 (stereo unspecified),inactive
6,O=C(Nc1ccn(Cc2ccccc2F)n1)c1ccc(COc2ccc(Br)cc2)cc1,active: 7.3 µM
7,CS(=O)(=O)N(CC(=O)N/N=C/c1cc2c(cc1Br)OCO2)c1ccccc1Br,"inconclusive: 35.5 µM [inhibitor, single point]"
8,Cc1ccc(/C=N/NC(=O)c2ccc(C(=O)N/N=C/c3ccc(C)s3)o2)s1,inactive
9,O=C(O)CCSc1ncnc2sc(-c3ccccc3)cc12,"inconclusive: 0.891 µM [inhibitor, full curve, poor fit]"
10,O=C(c1ccco1)N1CCC(c2ccccc2)C1 (stereo unspecified),inactive
11,COc1ccccc1CN1C[C@@H]2C[C@@H](c3[nH]c4ccc(C)cc4c3C)N3CCC[C@@]23C1=O,"inconclusive: 20 µM [inhibitor, partial curve, poor fit]"
12,CCc1nc(Nc2ccc(N3CCN(C(C)=O)CC3)cc2)c2oc3ccccc3c2n1,"inconclusive: 35.5 µM [inhibitor, single point]"
13,O[C@H]1C[C@H](c2ccc(Cl)cc2)N(Cc2cccs2)C[C@H]1n1cc(-c2ccc(F)cc2)nn1,"inconclusive: 3.53 µM [inhibitor, full curve, poor fit]"
14,COc1ccc(OC)c(C(c2nnnn2CC2CCCO2)N2CCN(C3CCCC3)CC2)c1 (stereo unspecified),"inconclusive: 5.62 µM [inhibitor, single point]"
15,O=C(CNCCN1CCOCC1)Nc1ccccc1Sc1ccccc1,"inconclusive: 35.5 µM [inhibitor, single point]"
16,Cc1ccc(S(=O)(=O)N2CCCCC2)cc1NC(=O)C1CCC1,"inconclusive: 3.16 µM [activator, single point]"
17,CCCCCn1c(=O)[nH]c2cc(C(=O)NCCCN3CCCCC3C)ccc2c1=O (stereo unspecified),"inconclusive: 11.2 µM [inhibitor, single point]"
18,COc1ccccc1-c1c(C(F)(F)F)oc2cc(OC(=O)c3ccccc3[N+](=O)[O-])ccc2c1=O,"inconclusive: 18.3 µM [inhibitor, single point]"
19,COc1ccc(C(=O)Nc2ccc3c(c2)nc(CCNC(C)=O)n3C)cc1,"inconclusive: 9.2 µM [activator, partial curve]"
20,CCC(c1c(C)n(C)n(-c2ccccc2)c1=O)c1c(C)n(C)n(-c2ccccc2)c1=O,"inconclusive: 0.259 µM [activator, partial curve, poor fit]"
21,COc1ccc([C@H]2C[C@@H](n3cc(COC(=O)c4ccccc4)nn3)[C@H](O)CN2CC2CCCCC2)cc1,"inconclusive: 12.5 µM [inhibitor, partial curve, poor fit]"
22,N#Cc1nc(-c2cccs2)oc1NCc1ccco1,inactive

row,Structure (SMILES),Potency
1,Nc1cccn2c(-c3ccc(Cl)cc3)cnc12,"inconclusive: 5.62 µM [activator, single point]"
2,CCn1c2ccccc2c2cc(/C=N/NC(=O)c3ccc(O)cc3)ccc21,active: 7.08 µM
3,COc1cc2c(cc1OC)CN(C(=O)CCCOc1ccc(Cl)cc1Cl)CC2,"inconclusive: 4.61 µM [inhibitor, single point]"
4,O=C(NCCc1nc2ccccc2[nH]1)/C(=C/c1ccc2c(c1)OCO2)NC(=O)c1ccccc1Cl,"inconclusive: 0.794 µM [inhibitor, partial curve, poor fit]"
5,COc1ccc(C(=O)NC2CC2)cc1OC1CCN(Cc2ccc(F)cc2Cl)CC1,"inconclusive: 11.2 µM [inhibitor, partial curve]"
6,O=C(COC(=O)c1ccc(S(=O)(=O)N2CCOCC2)cc1)NCc1cccs1,"inconclusive: 2 µM [activator, partial curve, poor fit]"
7,CC(=O)NNc1ncnc2c1cnn2-c1ccc(C)c(C)c1,inactive
8,CN1CCCN(C(=O)C2CCC(C(=O)N3CCCN(C)CC3)CC2)CC1 (stereo unspecified),inactive
9,CCCCNC(=O)CCc1nc2cccnc2n1Cc1ccc(OC)cc1,"inconclusive: 4.11 µM [activator, partial curve, poor fit]"
10,CC(=O)Nc1ccc(C(=O)OCC(=O)NC(=O)NC2CCCCC2)cc1,"inconclusive: 0.13 µM [activator, full curve, poor fit]"
11,CCOC(=O)c1sc(-c2ccc(Br)cc2)cc1N,"inconclusive: 18.3 µM [activator, single point]"
12,NC(=O)c1sc2nc(-c3ccco3)ccc2c1N,inactive
13,Cc1cc(C)cc(N(CC(=O)NC2CCCCC2)C(=O)c2ccc(C)s2)c1,"inconclusive: 29.1 µM [inhibitor, partial curve, poor fit]"
14,Cn1ncc(Cl)c1C(=O)NCc1cc(C(C)(C)C)n[nH]1,"inconclusive: 35.5 µM [inhibitor, single point]"
15,CSc1nc(N)nc(SC2C=CCCC2)c1C#N (stereo unspecified),inactive
16,CC(C(O)c1ccc(O)cc1)N1CCC(Cc2ccccc2)CC1 (stereo unspecified),active: 20.6 µM and active: 14.1 µM
17,CC(C)CN=c1cc(-c2ccccc2)oc2ccc(Cl)cc12,active: 17.8 µM
18,COc1cc2c(cc1OC)/C(=C/C(=O)c1cccc([N+](=O)[O-])c1)NCC2,"inconclusive: 35.5 µM [inhibitor, single point]"
19,COc1ccc(-n2c(C)cc(C(=O)CSc3nn4c(=O)c(C(C)(C)C)nnc4s3)c2C)cc1,"inconclusive: 20.6 µM [inhibitor, single point]"
20,O=C(c1ccc(F)cc1)N1CCC(C(=O)N2CCN(S(=O)(=O)c3ccccc3Br)CC2)CC1,"inconclusive: 35.5 µM [inhibitor, single point]"
21,Cc1cc(C)c(C)c(S(=O)(=O)N2CCNCC2)c1C,"inconclusive: 3.16 µM [inhibitor, partial curve, poor fit]"
22,CCN(CC)CCNC(=O)c1ccc(NC(=O)c2ccc(Cl)c(S(=O)(=O)Nc3ccccc3OC)c2)cc1,inactive
